Experiments:
STK16 = STK16 (Homo sapiens, UniProt O75716); experiment: biochemical; type: binding
cytochrome P450 = details: ref Eli Lilly and Company, 2019; cited from earlier work

Protein sequences, listed by entry. Tags and fused reporters are not part of them.
UniProt O75716, whole entry: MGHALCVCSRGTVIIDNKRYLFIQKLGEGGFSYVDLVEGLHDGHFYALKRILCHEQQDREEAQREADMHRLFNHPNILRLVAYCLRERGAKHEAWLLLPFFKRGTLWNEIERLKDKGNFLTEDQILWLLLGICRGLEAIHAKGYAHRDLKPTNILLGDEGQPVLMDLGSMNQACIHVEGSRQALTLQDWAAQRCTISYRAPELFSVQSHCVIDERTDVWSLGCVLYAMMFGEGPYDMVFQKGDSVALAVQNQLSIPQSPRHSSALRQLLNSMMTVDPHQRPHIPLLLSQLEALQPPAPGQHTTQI

Structure (SMILES): CCS(=O)(=O)N1CC(CC#N)(n2cc(-c3ncnc4[nH]ccc34)cn2)C1 [Baricitinib]
- Kd (STK16): 1100 nM
- cytochrome P450 inhibitory activity (cytochrome P450): low
